The list shows a part of the results.
What was measured:
Assay in all cases: glycan array binding signal (z-score within array); higher = stronger binding
Conditions in all cases: glycan notation: IUPAC condensed, linker removed
[1] = molecular target: Neu5Ac(a2-6)Gal(b1-4)GlcNAc(b1-6)GalNAc
Procedure, shortened: (§1)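 Glycan array data came from 3228 arrays in the Consortium for Functional Glycomics database, and only arrays with an available protein sequence were kept. Glycan names were put into IUPAC-condensed notation, and columns mapping to the same glycan were averaged. The binding signal is a within-array Z-score, averaged across arrays of one protein sequence run at different concentrations or buffers and across linkers. A negative Z-score can be read as non-binding.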

[2] = molecular target: Neu5Ac(a2-6)Gal(b1-4)GlcNAc(b1-6)[Gal(b1-3)GlcNAc(b1-3)]Gal(b1-4)Glc
Procedure, shortened: as §1

[3] = molecular target: Neu5Ac(a2-6)Gal(b1-4)GlcNAc(b1-6)[Gal(b1-3)]GalNAc
Procedure, shortened: as §1

[4] = molecular target: Neu5Ac(a2-6)Gal(b1-4)GlcNAc6S
Procedure, shortened: as §1

Neu5Ac(a2-6)GalNAc = molecular target: Neu5Ac(a2-6)GalNAc
Procedure, shortened: as §1

[5] = molecular target: Neu5Ac(a2-6)GalNAc(b1-4)GlcNAc
Procedure, shortened: as §1

[6] = molecular target: Neu5Ac(a2-6)GalNAc(b1-4)GlcNAc6S
Procedure, shortened: as §1

[7] = molecular target: Neu5Ac(a2-6)GlcNAc(b1-4)GlcNAc
Procedure, shortened: as §1

[8] = molecular target: Neu5Ac(a2-6)GlcNAc(b1-4)GlcNAc(b1-4)GlcNAc
Procedure, shortened: as §1

Neu5Ac(a2-8)Neu5Ac = molecular target: Neu5Ac(a2-8)Neu5Ac
Procedure, shortened: as §1

[9] = molecular target: Neu5Ac(a2-8)Neu5Ac(a2-3)Gal(b1-3)GalNAc(b1-4)[Neu5Ac(a2-3)]Gal(b1-4)Glc
Procedure, shortened: as §1

[10] = molecular target: Neu5Ac(a2-8)Neu5Ac(a2-3)Gal(b1-3)GalNAc(b1-4)[Neu5Ac(a2-8)Neu5Ac(a2-3)]Gal(b1-4)Glc
Procedure, shortened: as §1

[11] = molecular target: Neu5Ac(a2-8)Neu5Ac(a2-3)Gal(b1-4)Glc
Procedure, shortened: as §1

[12] = molecular target: Neu5Ac(a2-8)Neu5Ac(a2-3)Gal(b1-4)GlcNAc
Procedure, shortened: as §1

[13] = molecular target: Neu5Ac(a2-8)Neu5Ac(a2-3)[Gal(b1-3)GalNAc(b1-4)]Gal(b1-4)Glc
Procedure, shortened: as §1

[14] = molecular target: Neu5Ac(a2-8)Neu5Ac(a2-3)[GalNAc(b1-4)]Gal(b1-4)Glc
Procedure, shortened: as §1

[15] = molecular target: Neu5Ac(a2-8)Neu5Ac(a2-8)Neu5Ac
Procedure, shortened: as §1

[16] = molecular target: Neu5Ac(a2-8)Neu5Ac(a2-8)Neu5Ac(a2-3)Gal(b1-4)Glc
Procedure, shortened: as §1

[17] = molecular target: Neu5Ac(a2-8)Neu5Ac(a2-8)Neu5Ac(a2-3)[Gal(b1-3)GalNAc(b1-4)]Gal(b1-4)Glc
Procedure, shortened: as §1

[18] = molecular target: Neu5Ac(a2-8)Neu5Ac(a2-8)Neu5Ac(a2-3)[GalNAc(b1-4)]Gal(b1-4)Glc
Procedure, shortened: as §1

[19] = molecular target: Neu5Ac(a2-8)Neu5Ac(a2-8)Neu5Ac(a2-8)Neu5Ac(a2-3)[GalNAc(b1-4)]Gal(b1-4)Glc
Procedure, shortened: as §1

[20] = molecular target: Neu5Ac(a2-8)Neu5Gc(a2-3)Gal(b1-4)GlcNAc
Procedure, shortened: as §1

[21] = molecular target: Neu5Ac(b2-6)Gal(b1-4)GlcNAc
Procedure, shortened: as §1

Neu5Ac(b2-6)GalNAc = molecular target: Neu5Ac(b2-6)GalNAc
Procedure, shortened: as §1

[22] = molecular target: Neu5Ac9Ac(a2-3)Gal(b1-3)GlcNAc
Procedure, shortened: as §1

[23] = molecular target: Neu5Ac9Ac(a2-3)Gal(b1-4)GlcNAc
Procedure, shortened: as §1

[24] = molecular target: Neu5Ac9Ac(a2-6)Gal(b1-4)GlcNAc
Procedure, shortened: as §1

[25] = molecular target: Neu5Gc(a2-3)Gal(b1-3)GlcNAc
Procedure, shortened: as §1

[26] = molecular target: Neu5Gc(a2-3)Gal(b1-3)[Fuc(a1-4)]GlcNAc
Procedure, shortened: as §1

Neu5Gc(a2-3)Gal(b1-4)Glc = molecular target: Neu5Gc(a2-3)Gal(b1-4)Glc
Procedure, shortened: as §1

[27] = molecular target: Neu5Gc(a2-3)Gal(b1-4)GlcNAc
Procedure, shortened: as §1

[28] = molecular target: Neu5Gc(a2-3)Gal(b1-4)GlcNAc(b1-3)Gal(b1-4)GlcNAc(b1-2)Man(a1-3)[Neu5Gc(a2-3)Gal(b1-4)GlcNAc(b1-3)Gal(b1-4)GlcNAc(b1-2)Man(a1-6)]Man(b1-4)GlcNAc(b1-4)GlcNAc
Procedure, shortened: as §1

[29] = molecular target: Neu5Gc(a2-3)Gal(b1-4)[Fuc(a1-3)]GlcNAc
Procedure, shortened: as §1

[30] = molecular target: Neu5Gc(a2-6)Gal(b1-4)GlcNAc
Procedure, shortened: as §1

Neu5Gc(a2-6)GalNAc = molecular target: Neu5Gc(a2-6)GalNAc
Procedure, shortened: as §1

[31] = molecular target: Neu5Gc(a2-8)Neu5Ac(a2-3)Gal(b1-4)GlcNAc
Procedure, shortened: as §1

[32] = molecular target: Neu5Gc(a2-8)Neu5Gc(a2-3)Gal(b1-4)GlcNAc
Procedure, shortened: as §1

[33] = molecular target: Neu5Gc(a2-8)Neu5Gc(a2-3)Gal(b1-4)GlcNAc(b1-3)Gal(b1-4)GlcNAc
Procedure, shortened: as §1

B1: GS7807G-bfa-506-18-506 (Bacteroides fragilis) (protein)
chain: ASCDKFDEINTDPDATTKVTSSLLATGLLLDITSSSASKSFIYDELLAKQMAWGESMEDYQYNVFGRSGFGGYTTLINAQKMVESVSDDNVNAYDGLAHFIKAYKIFYMSMEMGDLPYEEALQGELGLVRPKYNTQKEVMNFILSDLETAYELFSTAKDFDGDPILGGSISKWKKATTAFQLKVLMHLSKKESDADLKVKERFARIVASGSLMESNEDNLQMKYADKANTVYPFHNTNTKHAGYAMLSTMLIDKFKATGDIRMFYYAKPAKAKLNEGVTADSWDAYIGTDPSLPFEQIEKAYATEQYSGFNARYTDYPSGEPVVRLGYAEQNFILAEAAVRGWISGDASAYYKKAIRAHMEFIASNTPDEEVYHHGHPITEEAIAAFLETPAIQLSGEKEEDIEKILTQRYLASFMQHPYDVYYDYRRTGYPVLPINPATNRNTMNDRLPMRWMYPKSESDYNLEHQNEALERQFGGVDDVNKLMWILQ
Q: How did the “glycan array binding signal (z-score)” value [1] turn out when B1 was run?
A: -0.681

Q: And the “glycan array binding signal (z-score)” value [2]?
A: -0.603

Q: And the “glycan array binding signal (z-score)” value [3]?
A: 2.06

Q: And the “glycan array binding signal (z-score)” value [4]?
A: -1

Q: And the “glycan array binding signal (z-score)” value (Neu5Ac(a2-6)GalNAc)?
A: -0.97

Q: What about the “glycan array binding signal (z-score)” value [5] of the same binder?
A: -0.624

Q: What about the “glycan array binding signal (z-score)” value [6] of the same binder?
A: -0.052

Q: What about the “glycan array binding signal (z-score)” value [7] of the same binder?
A: -0.846

Q: And the “glycan array binding signal (z-score)” value [8]?
A: -0.933

Q: And the “glycan array binding signal (z-score)” value (Neu5Ac(a2-8)Neu5Ac)?
A: -0.436

Q: And the “glycan array binding signal (z-score)” value [9]?
A: -0.336

Q: And the “glycan array binding signal (z-score)” value [10]?
A: 0.197

Q: What about the “glycan array binding signal (z-score)” value [11] of the same binder?
A: -0.836

Q: What about the “glycan array binding signal (z-score)” value [12] of the same binder?
A: -0.834

Q: And the “glycan array binding signal (z-score)” value [13]?
A: 0.482

Q: What about the “glycan array binding signal (z-score)” value [14] of the same binder?
A: 1.7

Q: And the “glycan array binding signal (z-score)” value [15]?
A: -0.389

Q: What about the “glycan array binding signal (z-score)” value [16] of the same binder?
A: -0.357

Q: What about the “glycan array binding signal (z-score)” value [17] of the same binder?
A: -0.149

Q: And the “glycan array binding signal (z-score)” value [18]?
A: -0.032

Q: And the “glycan array binding signal (z-score)” value [19]?
A: 2.07

Q: And the “glycan array binding signal (z-score)” value [20]?
A: -1.05

Q: And the “glycan array binding signal (z-score)” value [21]?
A: -0.477

Q: And the “glycan array binding signal (z-score)” value (Neu5Ac(b2-6)GalNAc)?
A: -0.877

Q: What about the “glycan array binding signal (z-score)” value [22] of the same binder?
A: -0.645

Q: And the “glycan array binding signal (z-score)” value [23]?
A: -1.05

Q: And the “glycan array binding signal (z-score)” value [24]?
A: -0.283

Q: And the “glycan array binding signal (z-score)” value [25]?
A: -0.768

Q: And the “glycan array binding signal (z-score)” value [26]?
A: -0.982

Q: And the “glycan array binding signal (z-score)” value (Neu5Gc(a2-3)Gal(b1-4)Glc)?
A: -0.637

Q: What about the “glycan array binding signal (z-score)” value [27] of the same binder?
A: -1.08

Q: What about the “glycan array binding signal (z-score)” value [28] of the same binder?
A: -0.41

Q: What about the “glycan array binding signal (z-score)” value [29] of the same binder?
A: -0.465

Q: And the “glycan array binding signal (z-score)” value [30]?
A: -0.771

Q: And the “glycan array binding signal (z-score)” value (Neu5Gc(a2-6)GalNAc)?
A: -0.111

Q: And the “glycan array binding signal (z-score)” value [31]?
A: -0.942

Q: What about the “glycan array binding signal (z-score)” value [32] of the same binder?
A: -0.712

Q: And the “glycan array binding signal (z-score)” value [33]?
A: -0.581
